The list shows a part of the results.
Experiments:
Assay in all cases: log2 fold change, soluble protein after heating vs DMSO (PISA); higher = thermal stabilisation; K562 cells, 10 uM, 30 min; active = over 0.2 and 3.5 SD of the protein, either way, in both replicates (recomputed)
[1] = compound: CC1=C(C=C(C=C1)NC(=O)C2=CC(=CC=C2)C(C)(C)C#N)NC3=CC4=C(C=C3)N=CN(C4=O)C
Method in brief: (§1)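 Aliquots of K562 cells (2×10^6 cells/mL) treated with 10 μM compound for 30 min were heated for 3 min over 48°C-58°C. After pooling and extraction in PBS with 0.5% NP-40 at 4°C, soluble protein from a 21,000xg, 90 min spin was quantified by TMTpro 16plex LC-MS/MS with channel sums equalised. Thermal stability is expressed against control samples, from duplicates, as a log2 fold change.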

Protein sequences, listed by entry. Tags and fused reporters are not part of them. Lines headed by an entry give the natural chain unless they say otherwise; changes in a name come on top.
UniProt P42574: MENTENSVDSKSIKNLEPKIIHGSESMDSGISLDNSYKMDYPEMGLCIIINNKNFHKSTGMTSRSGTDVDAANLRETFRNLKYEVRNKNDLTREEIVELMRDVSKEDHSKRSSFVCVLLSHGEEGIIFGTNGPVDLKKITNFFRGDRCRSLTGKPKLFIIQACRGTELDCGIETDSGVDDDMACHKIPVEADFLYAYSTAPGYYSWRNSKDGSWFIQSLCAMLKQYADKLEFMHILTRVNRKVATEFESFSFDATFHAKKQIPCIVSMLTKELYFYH
UniProt P55212: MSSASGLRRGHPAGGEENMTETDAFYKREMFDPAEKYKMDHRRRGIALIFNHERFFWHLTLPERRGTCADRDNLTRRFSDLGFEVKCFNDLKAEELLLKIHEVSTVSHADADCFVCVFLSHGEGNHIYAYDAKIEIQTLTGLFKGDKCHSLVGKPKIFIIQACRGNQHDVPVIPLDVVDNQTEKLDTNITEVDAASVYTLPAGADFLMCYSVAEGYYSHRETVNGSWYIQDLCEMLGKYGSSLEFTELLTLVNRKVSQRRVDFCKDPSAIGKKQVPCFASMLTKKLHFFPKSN
UniProt P78371: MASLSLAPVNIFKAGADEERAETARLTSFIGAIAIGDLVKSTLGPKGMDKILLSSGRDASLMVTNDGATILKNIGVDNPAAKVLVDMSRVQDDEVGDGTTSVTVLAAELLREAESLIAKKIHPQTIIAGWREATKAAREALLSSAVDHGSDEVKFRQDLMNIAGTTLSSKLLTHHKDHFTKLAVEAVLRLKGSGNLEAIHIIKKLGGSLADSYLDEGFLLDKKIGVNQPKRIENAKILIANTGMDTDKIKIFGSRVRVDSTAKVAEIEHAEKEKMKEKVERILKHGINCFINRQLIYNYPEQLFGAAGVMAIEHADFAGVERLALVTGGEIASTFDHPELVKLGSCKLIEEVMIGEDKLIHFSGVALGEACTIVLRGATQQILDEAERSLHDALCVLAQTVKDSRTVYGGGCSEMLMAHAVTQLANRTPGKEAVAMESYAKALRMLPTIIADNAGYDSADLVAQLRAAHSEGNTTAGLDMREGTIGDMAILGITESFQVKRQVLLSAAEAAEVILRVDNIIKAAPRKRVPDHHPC
UniProt P86791: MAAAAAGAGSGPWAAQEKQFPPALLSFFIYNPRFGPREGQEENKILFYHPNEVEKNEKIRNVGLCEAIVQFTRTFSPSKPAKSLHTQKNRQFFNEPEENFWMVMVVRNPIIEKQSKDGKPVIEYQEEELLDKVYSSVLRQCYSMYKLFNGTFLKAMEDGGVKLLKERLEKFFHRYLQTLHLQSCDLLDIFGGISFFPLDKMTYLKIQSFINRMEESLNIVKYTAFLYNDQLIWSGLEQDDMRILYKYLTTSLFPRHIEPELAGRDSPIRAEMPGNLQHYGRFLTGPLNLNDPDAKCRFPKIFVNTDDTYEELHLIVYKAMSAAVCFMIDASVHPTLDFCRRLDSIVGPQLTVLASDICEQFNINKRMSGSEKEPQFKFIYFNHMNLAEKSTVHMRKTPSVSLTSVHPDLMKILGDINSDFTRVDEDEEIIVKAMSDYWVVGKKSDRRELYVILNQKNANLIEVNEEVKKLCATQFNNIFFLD
UniProt P40227, whole entry, looked up: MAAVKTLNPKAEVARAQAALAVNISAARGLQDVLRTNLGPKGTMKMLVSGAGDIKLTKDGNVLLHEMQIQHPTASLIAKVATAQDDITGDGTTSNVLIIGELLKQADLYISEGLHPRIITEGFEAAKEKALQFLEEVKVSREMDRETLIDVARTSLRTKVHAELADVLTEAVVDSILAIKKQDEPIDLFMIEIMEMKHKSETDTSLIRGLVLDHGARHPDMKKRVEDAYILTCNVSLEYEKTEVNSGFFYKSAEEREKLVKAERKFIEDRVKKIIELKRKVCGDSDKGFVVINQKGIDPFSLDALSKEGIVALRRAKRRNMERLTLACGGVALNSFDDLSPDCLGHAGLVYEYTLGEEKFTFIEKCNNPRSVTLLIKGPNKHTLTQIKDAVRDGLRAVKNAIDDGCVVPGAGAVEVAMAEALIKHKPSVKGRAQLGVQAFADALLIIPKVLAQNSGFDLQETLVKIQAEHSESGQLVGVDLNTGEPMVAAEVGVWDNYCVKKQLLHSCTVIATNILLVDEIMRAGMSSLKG
UniProt Q86WR0: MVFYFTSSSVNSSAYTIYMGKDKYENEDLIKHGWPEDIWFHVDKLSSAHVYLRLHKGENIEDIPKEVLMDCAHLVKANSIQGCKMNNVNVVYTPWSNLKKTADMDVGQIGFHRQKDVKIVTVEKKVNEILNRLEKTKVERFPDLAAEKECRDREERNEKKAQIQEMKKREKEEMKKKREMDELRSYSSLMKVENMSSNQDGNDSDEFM
UniProt Q96CT7: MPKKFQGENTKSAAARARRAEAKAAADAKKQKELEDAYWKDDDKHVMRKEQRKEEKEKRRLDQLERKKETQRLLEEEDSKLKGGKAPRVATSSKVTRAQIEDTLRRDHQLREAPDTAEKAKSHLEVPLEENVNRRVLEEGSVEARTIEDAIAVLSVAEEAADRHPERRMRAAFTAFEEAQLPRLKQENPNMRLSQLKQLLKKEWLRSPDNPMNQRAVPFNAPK
UniProt Q96NT0: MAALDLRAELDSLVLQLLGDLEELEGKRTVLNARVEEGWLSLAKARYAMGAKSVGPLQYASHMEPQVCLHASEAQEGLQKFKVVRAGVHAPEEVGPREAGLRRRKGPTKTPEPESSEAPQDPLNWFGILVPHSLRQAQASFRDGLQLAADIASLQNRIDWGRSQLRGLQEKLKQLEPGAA
UniProt P51946: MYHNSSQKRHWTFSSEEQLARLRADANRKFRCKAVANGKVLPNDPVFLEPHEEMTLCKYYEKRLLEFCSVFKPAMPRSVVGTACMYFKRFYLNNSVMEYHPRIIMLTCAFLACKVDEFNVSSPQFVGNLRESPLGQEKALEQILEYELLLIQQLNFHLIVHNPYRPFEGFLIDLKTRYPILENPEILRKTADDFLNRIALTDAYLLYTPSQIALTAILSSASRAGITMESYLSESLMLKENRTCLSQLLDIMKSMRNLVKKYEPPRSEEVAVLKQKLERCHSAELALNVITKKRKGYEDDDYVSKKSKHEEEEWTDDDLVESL
UniProt P04040: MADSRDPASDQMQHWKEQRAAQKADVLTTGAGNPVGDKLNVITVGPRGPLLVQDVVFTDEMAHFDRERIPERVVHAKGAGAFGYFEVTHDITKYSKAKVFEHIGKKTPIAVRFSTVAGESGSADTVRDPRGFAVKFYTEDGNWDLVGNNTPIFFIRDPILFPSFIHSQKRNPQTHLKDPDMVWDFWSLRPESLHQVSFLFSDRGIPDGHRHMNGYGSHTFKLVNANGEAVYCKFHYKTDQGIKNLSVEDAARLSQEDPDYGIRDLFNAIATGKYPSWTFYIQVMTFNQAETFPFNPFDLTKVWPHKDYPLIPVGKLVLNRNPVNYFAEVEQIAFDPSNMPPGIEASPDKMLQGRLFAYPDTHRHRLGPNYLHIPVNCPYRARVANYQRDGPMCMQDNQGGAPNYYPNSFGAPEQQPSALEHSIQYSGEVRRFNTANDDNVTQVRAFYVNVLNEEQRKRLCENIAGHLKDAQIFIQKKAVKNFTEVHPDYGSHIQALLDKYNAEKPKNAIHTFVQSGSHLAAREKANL
UniProt Q8IVM0: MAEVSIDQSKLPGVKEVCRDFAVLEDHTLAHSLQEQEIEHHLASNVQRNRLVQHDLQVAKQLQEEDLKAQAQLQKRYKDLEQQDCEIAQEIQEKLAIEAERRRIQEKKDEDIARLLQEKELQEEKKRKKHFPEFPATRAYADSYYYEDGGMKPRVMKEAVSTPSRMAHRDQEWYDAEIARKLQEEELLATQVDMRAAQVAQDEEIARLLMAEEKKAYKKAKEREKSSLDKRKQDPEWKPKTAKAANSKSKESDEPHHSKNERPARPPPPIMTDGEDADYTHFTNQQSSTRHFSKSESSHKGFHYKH
UniProt Q7Z6B0: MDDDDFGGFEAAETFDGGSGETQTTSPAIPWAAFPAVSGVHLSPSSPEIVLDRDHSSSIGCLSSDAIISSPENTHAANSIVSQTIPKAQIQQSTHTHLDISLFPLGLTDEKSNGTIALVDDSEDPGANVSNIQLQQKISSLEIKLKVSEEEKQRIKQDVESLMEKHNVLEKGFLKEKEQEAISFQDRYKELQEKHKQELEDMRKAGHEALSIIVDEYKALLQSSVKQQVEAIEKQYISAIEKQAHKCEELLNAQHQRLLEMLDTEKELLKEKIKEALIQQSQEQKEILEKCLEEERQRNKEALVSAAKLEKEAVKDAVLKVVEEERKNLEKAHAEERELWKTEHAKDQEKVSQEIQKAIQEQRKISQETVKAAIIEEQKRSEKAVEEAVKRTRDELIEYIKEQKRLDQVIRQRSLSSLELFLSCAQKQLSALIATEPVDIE
UniProt P83916, whole entry, looked up: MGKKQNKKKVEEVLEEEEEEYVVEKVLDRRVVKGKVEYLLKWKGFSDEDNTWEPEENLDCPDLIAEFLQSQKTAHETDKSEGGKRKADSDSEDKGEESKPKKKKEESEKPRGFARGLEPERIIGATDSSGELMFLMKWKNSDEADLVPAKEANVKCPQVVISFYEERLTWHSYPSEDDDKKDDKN
UniProt Q08722, whole entry, looked up: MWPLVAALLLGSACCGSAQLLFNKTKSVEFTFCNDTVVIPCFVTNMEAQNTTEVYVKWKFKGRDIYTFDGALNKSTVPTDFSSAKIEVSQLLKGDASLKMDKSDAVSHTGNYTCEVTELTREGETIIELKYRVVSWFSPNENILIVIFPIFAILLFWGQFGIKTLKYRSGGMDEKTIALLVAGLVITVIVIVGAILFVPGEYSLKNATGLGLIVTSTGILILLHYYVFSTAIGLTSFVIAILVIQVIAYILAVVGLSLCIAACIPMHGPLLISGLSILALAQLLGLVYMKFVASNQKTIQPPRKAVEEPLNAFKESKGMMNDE
UniProt P24863: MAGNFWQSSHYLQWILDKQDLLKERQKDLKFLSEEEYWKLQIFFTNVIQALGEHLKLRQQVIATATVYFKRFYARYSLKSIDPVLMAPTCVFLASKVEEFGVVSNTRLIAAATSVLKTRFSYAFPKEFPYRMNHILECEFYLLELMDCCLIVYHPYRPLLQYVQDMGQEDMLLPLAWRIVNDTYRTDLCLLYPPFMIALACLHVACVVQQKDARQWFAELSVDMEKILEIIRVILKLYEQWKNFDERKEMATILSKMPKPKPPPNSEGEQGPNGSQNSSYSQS
UniProt Q13185: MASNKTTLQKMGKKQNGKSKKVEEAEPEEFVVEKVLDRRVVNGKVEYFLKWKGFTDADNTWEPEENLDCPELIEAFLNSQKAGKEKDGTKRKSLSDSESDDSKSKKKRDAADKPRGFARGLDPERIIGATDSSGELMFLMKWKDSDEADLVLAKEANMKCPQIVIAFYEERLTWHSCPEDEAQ
UniProt P08174: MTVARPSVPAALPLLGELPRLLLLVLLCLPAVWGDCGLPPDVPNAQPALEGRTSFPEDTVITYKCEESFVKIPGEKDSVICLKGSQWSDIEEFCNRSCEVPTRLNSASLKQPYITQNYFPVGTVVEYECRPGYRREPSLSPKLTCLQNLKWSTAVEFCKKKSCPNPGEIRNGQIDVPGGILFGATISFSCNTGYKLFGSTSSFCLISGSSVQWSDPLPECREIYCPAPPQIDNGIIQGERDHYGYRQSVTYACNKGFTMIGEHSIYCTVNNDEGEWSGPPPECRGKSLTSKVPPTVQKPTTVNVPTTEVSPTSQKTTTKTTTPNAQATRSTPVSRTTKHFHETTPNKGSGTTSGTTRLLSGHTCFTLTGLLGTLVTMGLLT
UniProt P50990: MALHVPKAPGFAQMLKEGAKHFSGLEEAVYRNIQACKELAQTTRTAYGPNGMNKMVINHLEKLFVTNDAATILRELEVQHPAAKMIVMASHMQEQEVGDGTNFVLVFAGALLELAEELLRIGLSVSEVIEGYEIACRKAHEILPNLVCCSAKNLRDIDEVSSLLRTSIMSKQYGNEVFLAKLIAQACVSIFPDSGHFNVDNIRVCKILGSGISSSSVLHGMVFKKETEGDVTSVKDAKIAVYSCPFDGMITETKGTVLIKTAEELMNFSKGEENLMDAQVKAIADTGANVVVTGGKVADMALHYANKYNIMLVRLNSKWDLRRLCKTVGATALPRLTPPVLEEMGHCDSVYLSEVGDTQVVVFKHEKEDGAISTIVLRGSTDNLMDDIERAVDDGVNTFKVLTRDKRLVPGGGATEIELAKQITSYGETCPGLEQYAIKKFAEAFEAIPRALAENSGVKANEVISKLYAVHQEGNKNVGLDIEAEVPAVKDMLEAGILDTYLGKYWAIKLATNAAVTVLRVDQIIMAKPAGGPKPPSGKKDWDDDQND
UniProt Q6PK04: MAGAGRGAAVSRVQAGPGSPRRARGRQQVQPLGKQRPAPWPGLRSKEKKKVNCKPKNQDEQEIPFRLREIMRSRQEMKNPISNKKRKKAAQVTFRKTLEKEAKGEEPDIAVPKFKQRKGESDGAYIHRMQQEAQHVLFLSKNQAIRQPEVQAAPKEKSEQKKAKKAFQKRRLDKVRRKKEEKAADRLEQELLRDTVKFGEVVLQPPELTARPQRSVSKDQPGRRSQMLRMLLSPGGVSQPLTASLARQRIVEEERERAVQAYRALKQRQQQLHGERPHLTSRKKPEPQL

[2] = compound: CC1=C(C=C(C=C1)NC(=O)C2=CC(=CC=C2)N(C)C)NC(=O)C3=CC=C(C=C3)O
Method in brief: as §1

[3] = compound: CC1=CC=C(C=C1)SC2=C3C=C(SC3=CN=C2)C(=O)N
Method in brief: as §1

[4] = compound: CC1=NC(=CC=C1)C2=C(N=C(N2)C(C)(C)C)C3=CC4=NC=CN=C4C=C3
Method in brief: as §1

Nexturastat A = compound: CCCCN(Cc1ccc(C(=O)NO)cc1)C(=O)Nc1ccccc1 [Nexturastat A]
Method in brief: as §1

vemurafenib = compound: CCCS(=O)(=O)Nc1ccc(F)c(C(=O)c2c[nH]c3ncc(-c4ccc(Cl)cc4)cc23)c1F [vemurafenib]
Method in brief: as §1

[5] = compound: CCCS(=O)(=O)Nc1ccc(F)c(C(=O)c2c[nH]c3ncc(Cl)cc23)c1F
Method in brief: as §1

[6] = compound: CCCc1cc(C)[nH]c(=O)c1CNC(=O)c1cc(-c2ccnc(N3CCN(C)CC3)c2)cc2c1cnn2C(C)C
Method in brief: as §1

givinostat = compound: CCN(CC)Cc1ccc2cc(COC(=O)Nc3ccc(C(=O)NO)cc3)ccc2c1 [givinostat]
Method in brief: as §1

barasertib = compound: CCN(CCCOc1ccc2c(Nc3cc(CC(=O)Nc4cccc(F)c4)[nH]n3)ncnc2c1)CCOP(=O)(O)O [barasertib]
Method in brief: as §1

Measured: log2 fold change

CASP3 (UniProt P42574)
inactive: [1] -0.049 | [2] 0.086 | [3] 0.009 | [4] 0.065 | Nexturastat A -0.025 | vemurafenib -0.009 | [5] 0.022 | [6] 0.113 | givinostat -0.029 | barasertib -0.005

CASP6 (UniProt P55212)
inactive: [1] 0.03 | [2] 0.027 | [3] 0.013 | [4] 0.034 | Nexturastat A -0.026 | vemurafenib -0.01 | [5] -0.005 | [6] -0.057 | givinostat -0.041 | barasertib 0.003

CCT2 (UniProt P78371)
inactive: [1] 0.009 | [2] 0.003 | [3] 0.009 | [4] 0.028 | Nexturastat A -0.078 | vemurafenib 0.023 | [5] -0.009 | [6] -0.008 | givinostat -0.02 | barasertib -0.021

CCZ1 (UniProt P86791)
inactive: [1] -0.005 | [2] -0.029 | [3] 0.014 | [4] 0.035 | Nexturastat A 0.009 | vemurafenib 0.024 | [5] 0.011 | [6] -0.029 | givinostat 0.028 | barasertib -0.011

CCT6A (UniProt P40227)
inactive: [1] 0.007 | [2] -0.001 | [3] 0 | [4] 0.022 | Nexturastat A -0.034 | vemurafenib -0.023 | [5] -0.003 | [6] -0.018 | givinostat -0.021 | barasertib -0.002

CD59 isoform 2 (UniProt P13987)
inactive: [1] 0.054 | [2] -0.103 | [3] -0.097 | [4] -0.057 | Nexturastat A 0.146 | vemurafenib -0.038 | [5] -0.155 | [6] 0.009 | givinostat -0.017 | barasertib -0.07

CDC42 isoform 1 (UniProt P60953)
inactive: [1] 0.042 | [2] 0.008 | [3] 0.019 | [4] -0.03 | Nexturastat A -0.05 | vemurafenib -0.041 | [5] -0.017 | [6] -0.05 | givinostat -0.02 | barasertib -0.005

CCDC25 (UniProt Q86WR0)
inactive: [1] 0.027 | [2] -0.057 | [3] 0.075 | [4] 0.019 | Nexturastat A -0.026 | vemurafenib -0.044 | [5] 0.052 | [6] -0.066 | givinostat 0.134 | barasertib 0.012

Quoted at random: 2 entries already listed
CD59 isoform 2 (UniProt P13987)
inactive: [1] 0.054 | [2] -0.103 | [3] -0.097 | [4] -0.057 | Nexturastat A 0.146 | vemurafenib -0.038 | [5] -0.155 | [6] 0.009 | givinostat -0.017 | barasertib -0.07

CCZ1 (UniProt P86791)
inactive: [1] -0.005 | [2] -0.029 | [3] 0.014 | [4] 0.035 | Nexturastat A 0.009 | vemurafenib 0.024 | [5] 0.011 | [6] -0.029 | givinostat 0.028 | barasertib -0.011

More records

CAVIN2 (UniProt O95810)
inactive: [1] 0.03 | [2] 0 | [3] -0.035 | [4] -0.06 | Nexturastat A 0.155 | vemurafenib -0.031 | [5] -0.028 | [6] 0.039 | givinostat 0.015 | barasertib -0.043

CDAN1 (UniProt Q8IWY9)
inactive: [1] 0.039 | [2] 0.046 | [3] -0.071 | [4] -0.022 | Nexturastat A -0.192 | vemurafenib -0.067 | [5] 0.077 | [6] 0.022 | givinostat 0.023 | barasertib 0.002

CCDC124 (UniProt Q96CT7)
inactive: [1] 0.01 | [2] -0.013 | [3] 0.001 | [4] -0.013 | Nexturastat A -0.033 | vemurafenib -0.028 | [5] -0.032 | [6] -0.04 | givinostat -0.022 | barasertib -0.062

CCDC115 (UniProt Q96NT0)
inactive: [1] -0.044 | [2] -0.041 | [3] -0.067 | [4] 0.055 | Nexturastat A -0.014 | vemurafenib 0.069 | [5] 0.008 | [6] 0.009 | givinostat 0.057 | barasertib 0.026

CCNH (UniProt P51946)
inactive: [1] -0.023 | [2] 0.007 | [3] -0.015 | [4] -0.056 | Nexturastat A -0.002 | vemurafenib 0.003 | [5] 0.018 | [6] -0.029 | givinostat -0.007 | barasertib 0.031

CAT (UniProt P04040)
inactive: [1] -0.017 | [2] 0.006 | [3] 0.188 | [4] 0.008 | Nexturastat A -0.073 | vemurafenib 0.009 | [5] -0.002 | [6] 0.009 | givinostat 0.002 | barasertib 0.012

CCDC50 (UniProt Q8IVM0)
inactive: [1] -0.02 | [2] 0.013 | [3] -0.032 | [4] -0.029 | Nexturastat A -0.083 | vemurafenib 0.014 | [5] -0.037 | [6] -0.05 | givinostat -0.026 | barasertib 0.025

CCDC91 (UniProt Q7Z6B0)
inactive: [1] 0.003 | [2] 0.012 | [3] -0.029 | [4] 0.093 | Nexturastat A -0.068 | vemurafenib -0.064 | [5] 0.016 | [6] -0.007 | givinostat 0.014 | barasertib 0.028

CCT7 (UniProt Q99832)
inactive: [1] 0.025 | [2] 0.006 | [3] 0 | [4] 0.02 | Nexturastat A -0.106 | vemurafenib -0.007 | [5] -0.017 | [6] 0.024 | givinostat -0.059 | barasertib -0.007

CCDC117 (UniProt Q8IWD4)
inactive: [1] -0.067 | [2] -0.013 | [3] -0.028 | [4] 0.027 | Nexturastat A 0.123 | vemurafenib 0 | [5] -0.013 | [6] 0.068 | givinostat 0.079 | barasertib -0.003

CDC123 (UniProt O75794)
inactive: [1] -0.033 | [2] 0.006 | [3] 0.043 | [4] 0.048 | Nexturastat A 0.013 | vemurafenib 0.011 | [5] 0.02 | [6] 0.038 | givinostat -0.01 | barasertib 0.028

CBX1 (UniProt P83916)
inactive: [1] 0.049 | [2] -0.005 | [3] 0.04 | Nexturastat A -0.026 | vemurafenib 0.07 | [5] 0.057 | [6] -0.011 | givinostat -0.042 | barasertib -0.009
active: [4] 0.318

CD47 (UniProt Q08722)
inactive: [1] -0.011 | [2] 0.016 | [3] -0.016 | [4] -0.086 | Nexturastat A -0.015 | vemurafenib 0.003 | [5] -0.024 | [6] -0.004 | givinostat 0.04 | barasertib -0.006

CCNC (UniProt P24863)
inactive: [1] 0.207 | [2] -0.072 | [4] 0.031 | Nexturastat A 0.008 | vemurafenib 0.105 | [6] -0.086 | givinostat 0.011 | barasertib -0.024

CBX3 (UniProt Q13185)
inactive: [1] 0.129 | [2] -0.005 | [3] -0.089 | [4] 0.121 | Nexturastat A -0.032 | vemurafenib 0.027 | [5] -0.04 | [6] 0.25 | givinostat -0.093 | barasertib 0.03

CD55 isoform 7 (UniProt P08174)
inactive: [1] 0.037 | [2] -0.006 | [3] 0.021 | [4] 0.049 | Nexturastat A 0.072 | vemurafenib -0.031 | [5] -0.053 | [6] 0.088 | givinostat 0 | barasertib -0.057

CCDC167 (UniProt Q9P0B6)
inactive: [1] 0.064 | [2] -0.039 | [3] -0.007 | [4] -0.042 | Nexturastat A 0.022 | [5] -0.034 | [6] 0.022 | givinostat 0.048 | barasertib -0.003

CASP10 isoform 4 (UniProt Q92851)
inactive: [1] 0.015 | [2] 0.026 | [3] 0.085 | [4] 0 | Nexturastat A 0.125 | vemurafenib -0.015 | [5] 0.014 | [6] 0.034 | barasertib 0.121

CCT8 (UniProt P50990)
inactive: [1] -0.006 | [2] 0.006 | [3] -0.005 | [4] 0.049 | Nexturastat A -0.043 | vemurafenib -0.009 | [5] -0.002 | [6] -0.012 | givinostat 0.011 | barasertib -0.018

CCDC137 (UniProt Q6PK04)
inactive: [1] -0.021 | [2] -0.09 | [4] -0.159 | Nexturastat A 0.014 | vemurafenib 0.095 | [6] 0.217 | givinostat 0.051 | barasertib -0.219

— the supplement of paper PMC10849652
